Assay [1] has as its target T1, Syc2039 (Synpcc7942_2039) (Synechococcus elongatus PCC 7942) (UniProt Q31LK0).
T1 sequence: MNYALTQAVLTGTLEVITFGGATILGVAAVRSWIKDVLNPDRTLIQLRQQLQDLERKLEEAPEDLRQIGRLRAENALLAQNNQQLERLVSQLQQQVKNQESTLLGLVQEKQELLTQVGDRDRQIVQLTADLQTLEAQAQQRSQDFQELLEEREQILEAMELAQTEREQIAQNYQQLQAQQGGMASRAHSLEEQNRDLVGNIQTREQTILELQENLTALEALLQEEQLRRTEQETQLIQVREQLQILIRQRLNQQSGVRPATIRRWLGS
As to the kind of experiment: two-hybrid; BACTH (Euromedex) in E. coli BTH101; C- and N-terminal fusions to T25 or T18; beta-galactosidase assays (Miller units) from three colonies, grown over night at 30 °C or 2 d at 20 °C.

In assay [2] the target is HmpFSyc (Synpcc7942_1139) (Synechococcus elongatus PCC 7942) (UniProt Q31P50). The description is as above.

Results are given in words; binding and its absence hold for the method and conditions named. Some entries that bind do so weakly or less than the wild type.

B1: Syc2039 (Synpcc7942_2039) (protein, UniProt Q31LK0 1-268)
chain: T1 sequence
Take B1: the binding entry in assay [1] is recorded as “binds”.

B2: HmpFSyc (Synpcc7942_1139) (protein, UniProt Q31P50 1-556)
chain: MLYLAEVGKRGGLFGGNKVEFRLIAFQRPDEGWQVLPEEEVLASDKTCDFSPGALVLLDLNNSRQVQRIQEATQRLLGFLREFSRLQERYRAQEAEVEQWKESLSIQSQELSRRQQEFENRQDQLQQLQAELFQLEEQKQEALAIQQQADALRAELDRRDRELKEAWQELEIQRQSFSSQPFGAVAFAPETQAAIAQLEQQIANWQNDDTVLAELSNKVTAAQQDLQSRIASLTNPDQPDVGNLENLQQALQEQRRQFQTAHLEWMSQQARLEQDKHQLSEEQTLLAGLEQRRRAIAQACQLIHALTGEANRSELEALPLEELQERVAAVQRDYDRIYSFVNDQEEELRLETADLEKLRANLEQANELERLSLEGELIEAEQRCQLLDESLVAQRLIAQERLTVLQQYQQVLEGRQSGTPIAPEVDLSELRSLLDRELPDLDGLIANVQARVEKLQEDVATIEGGIQAKADRVYRLKETVESTEEKWRNCELQVAEIRGYNQAIAACREWLEQIAQTYSEVYGAICTLAEQQRQQQADRAALQQQLAAISHQLIAA
With B2, the binding entry in assay [2] and in assay [1] was “binds” in each case.
